Assay results published in PubChem BioAssay AID1487 (National Center for Advancing Translational Sciences (NCATS), 2009).
“And” between values parts separate entries of the source, which are not always exact repeats. Equal values may be shown once. This is one part of the list. These are further read-outs of the screen, such as a control signal, another cell line or another target. No call is given for them. Most of these compounds were active or inconclusive in the main read-out, so they are no random draw. The note in brackets gives the kind of curve behind each potency; many fits are weak.

Assay: qHTS Assay for Modulators of Lamin A Splicing
Conditions: HeLa LMNA splicing GFP/RFP minigene ratio, 48 h
Procedure, shortened: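 S3 HeLa stable clones carrying a lamin A-EGFP splicing minigene plus DsRed2 were seeded at 600 cells/well in Opti-MEM with 2% FBS, pin-dosed and incubated 48 h at 37°C. Acumen cytometry (488 nm) gave the GFP/RFP total-intensity ratio.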

[1] = measured here: RFP viability control channel
[2] = measured here: GFP splicing reporter channel

Compound: Cc1ccc(OCC(=O)N/N=C/c2cn(Cc3ccccc3)c3ccccc23)cc1
- AC50 [1]: 15.8 µM [rising, single point]

Compound: CC1(C)Cc2c(c(-c3ccco3)nc3n[nH]c(N)c23)CO1
- AC50 [1]: 35.5 µM [rising, single point]

Compound: Clc1ccc(-c2nnc3sc(Cc4cccs4)nn23)cc1
- AC50 [1]: 35.5 µM [rising, single point]

Compound: O=C(CN1CCc2ccccc2C1)Nc1ccccc1N1CCCCCC1
- AC50 [2]: 10 µM [rising, partial curve]
- AC50 [1]: 11.2 µM [rising, single point]

Compound: CN(Cc1cc(-c2ccccc2)on1)C(=O)c1cc(COc2c(F)cccc2F)on1
- AC50 [1]: 8.91 µM [falling, partial curve]

Compound: CCC(=O)C1=C(c2ccc(OC)c(OC)c2)N(C(=O)CC)n2c(nnc2-c2ccc(C)cc2)S1
- AC50 [1]: 35.5 µM [rising, single point]

Compound: CCc1cccc(CC)c1N1C(=O)c2cc(N3CCOCC3)c([N+](=O)[O-])cc2C1=O
- AC50 [2]: 11.2 µM [rising, single point]
- AC50 [1]: 25.1 µM [rising, single point]

Compound: CCOC(=O)N1CCC(NC(=O)c2cc(S(=O)(=O)N3CCC4(CC3)OCCO4)ccc2F)CC1
- AC50 [2]: 11.2 µM [rising, partial curve, poor fit]

Compound: CN(C)CCCC1(O)c2ccccc2CCc2ccccc21
- AC50 [1]: 0.0398 µM [falling, full curve, poor fit]

Compound: Cc1ccc(/C=N/NC(=O)COc2ccccc2-c2ccccc2)cc1
- AC50 [1]: 0.1 µM [rising, full curve]

Compound: COc1ccc2c(C)cc(Sc3nnnn3-c3ccccc3)nc2c1
- AC50 [1]: 22.4 µM [rising, partial curve, poor fit]

Compound: O=c1c2ccccc2nc2n1CCN2Cc1ccc(Cl)cc1
- AC50 [1]: 12.6 µM [rising, partial curve]

Compound: COC(=O)c1sc(NC(=O)CSc2nncs2)c(C(=O)OC)c1C
- AC50 [2]: 0.00891 µM [rising, full curve, poor fit]
- AC50 [1]: 17.8 µM [rising, single point]

Compound: O=C(c1cc2c(=O)n3ccccc3nc2s1)N1CCN(Cc2ccc3c(c2)OCO3)CC1
- AC50 [2]: 2.51 µM [falling, partial curve]
- AC50 [1]: 3.16 µM [falling, partial curve]

Compound: O=C(NCc1ccco1)c1ccc(N2CCCCC2)c([N+](=O)[O-])c1
- AC50 [2]: 12.6 µM [rising, partial curve]
- AC50 [1]: 12.6 µM [rising, partial curve, poor fit]

Compound: Cn1c(CN2CCCC2)nc2cc(NC(=O)c3cccs3)ccc21
- AC50 [2]: 35.5 µM [rising, single point]
- AC50 [1]: 17.8 µM [rising, single point]

Compound: Cc1n[nH]c(C)c1CCN(C)Cc1cn(C)nc1-c1ccccc1F
- AC50 [2]: 3.55 µM [falling, full curve, poor fit]
- AC50 [1]: 1.78 µM [falling, full curve]

Compound: O=C(CCNC(=O)c1ccccc1Cl)Nc1nc(-c2ccccc2Cl)cs1
- AC50 [2]: 35.5 µM [rising, single point]
- AC50 [1]: 35.5 µM [rising, single point]

Compound: Cc1ccc(Cl)cc1NC(=O)Nc1cccc(OCc2cc(=O)n3ccccc3n2)c1
- AC50 [2]: 0.794 µM [rising, single point]

Compound: Cc1nn(C)c(C)c1Sc1ccc(Br)cc1
- AC50 [1]: 15.8 µM [rising, partial curve]

Compound: O=C(Nc1cccc(C(F)(F)F)c1)c1cccnc1N1CCN(c2ccccc2)CC1
- AC50 [1]: 35.5 µM [rising, single point]

Compound: O=C(O)CN(CCN(CC(=O)O)CC(=O)O)CC(=O)O
- AC50 [2]: 22.4 µM [falling, single point]

Compound: O=S(=O)(c1ccc2c(c1)OCCO2)N1CCC(O)(c2ccc(Cl)cc2)CC1
- AC50 [1]: 22.4 µM [rising, partial curve]

Compound: O=C(NCC(c1ccco1)S(=O)(=O)c1cccs1)c1ccc(F)c(F)c1 (stereo not given)
- AC50 [2]: 3.55 µM [rising, partial curve]

Compound: C[C@@H]1C(SC2Cn3cnc[n+]3C2)=C(C(=O)[O-])N2C(=O)[C@H]([C@@H](C)O)[C@@H]12 (stereo not given in full)
- AC50 [2]: 0.562 µM [falling, partial curve, poor fit]
- AC50 [1]: 35.5 µM [falling, single point]

Compound: Cc1cccc(N(CC(O)CON=C2c3ccccc3-c3ccccc32)S(C)(=O)=O)c1 (stereo not given)
- AC50 [2]: 20 µM [rising, single point]
- AC50 [1]: 28.2 µM [rising, single point]

Compound: CCOc1ccccc1NC(=O)CC1Nc2cc(C)c(C)cc2NC1=O (stereo not given)
- AC50 [2]: 15.8 µM [rising, partial curve, poor fit]
- AC50 [1]: 14.1 µM [rising, single point]

Compound: CS/C(=C\[N+](=O)[O-])Nc1ccc(F)cc1
- AC50 [2]: 15.8 µM [rising, partial curve, poor fit]

Compound: O=C(CCn1nc(-c2ccc(Cl)cc2)ccc1=O)NCCc1ccccc1
- AC50 [2]: 0.251 µM [falling, full curve]
- AC50 [1]: 0.158 µM [falling, full curve]

Compound: CN(C)S(=O)(=O)c1ccc2c(c1)/C(=C/c1cc3c([nH]1)CCCC3)C(=O)N2
- AC50 [2]: 1.58 µM [rising, partial curve]
- AC50 [1]: 3.16 µM [rising, full curve]

Compound: O=C(c1cccc(C(=O)N2CCc3ccccc32)n1)N1CCc2ccccc21
- AC50 [2]: 35.5 µM [rising, single point]
- AC50 [1]: 31.6 µM [rising, single point]

Compound: Cc1ccc(C(NC(=O)NC(C)c2ccccc2)C(Cl)(Cl)Cl)cc1F (stereo not given)
- AC50 [1]: 12.6 µM [rising, single point]

Compound: CC(c1ccco1)N(C(=O)CSc1ccc(Br)cc1)c1ccccn1 (stereo not given)
- AC50 [2]: 35.5 µM [rising, single point]
- AC50 [1]: 31.6 µM [rising, single point]

Compound: C=CCc1cccc(/C=N/NC(=O)CNc2ccccc2)c1O
- AC50 [2]: 11.2 µM [rising, partial curve]
- AC50 [1]: 15.8 µM [rising, partial curve]

Compound: COc1ccc(C(=O)N2c3cc4c(cc3C(C)=CC2(C)C)OCO4)cc1
- AC50 [2]: 8.91 µM [rising, partial curve]
- AC50 [1]: 10 µM [rising, partial curve]

Compound: Cc1cccc(NC(=O)c2sc3nc4c(c(-c5ccco5)c3c2N)CCC4)c1
- AC50 [2]: 0.0141 µM [rising, full curve, poor fit]
- AC50 [1]: 3.98 µM [rising, partial curve, poor fit]

Compound: CCN1C(=O)/C(=C\c2nc3ccccc3c(=O)n2CC)c2ccccc21
- AC50 [2]: 2.82 µM [falling, full curve]

Compound: COc1ccc2[nH]cc(CCNc3ccnc(-c4cccc(C#N)c4)n3)c2c1
- AC50 [2]: 20 µM [falling, single point]
- AC50 [1]: 35.5 µM [falling, single point]

Compound: Cc1onc(-c2ccccc2Cl)c1C(=O)N1CCN(c2ccccc2)CC1
- AC50 [1]: 35.5 µM [rising, single point]

Compound: Clc1cccc(Cl)c1NC1=NCCN1
- AC50 [2]: 12.6 nM [falling, full curve] and 20 nM [rising, full curve, poor fit] and 10 µM [falling, single point]
- AC50 [1]: 282 nM [falling, partial curve, poor fit] and 5.62 nM [rising, full curve, poor fit] and 35.5 µM [falling, single point]

Compound: CC(C)c1ccc(/C=C/C(=O)NC(=S)Nc2ccc(CN3CCOCC3)cc2)cc1
- AC50 [1]: 12.6 µM [rising, partial curve]

Compound: CCCn1nnc(NC(=O)/C=C/c2cc(Br)ccc2OC)n1
- AC50 [1]: 0.0355 µM [falling, full curve, poor fit]

Compound: CC(=O)c1cccc(NS(=O)(=O)c2cc3c(cc2C)N(C(C)=O)CCO3)c1
- AC50 [2]: 14.1 µM [falling, partial curve, poor fit]
- AC50 [1]: 35.5 µM [falling, single point]

Compound: CCc1cccc2c(C(=O)COC(=O)C3=NNC(=O)CC3)c[nH]c12
- AC50 [2]: 0.794 µM [rising, full curve, poor fit]
- AC50 [1]: 1.41 µM [rising, partial curve]

Compound: N#C/C(=C(/O)COC(=O)CCc1ccc(S(=O)(=O)N2CCOCC2)cc1)c1nc2ccccc2[nH]1
- AC50 [2]: 0.112 µM [rising, full curve, poor fit]

Compound: CC(=O)Nc1ccc(SCC(=O)Nc2cc(C)on2)cc1
- AC50 [1]: 5.01 µM [rising, partial curve]

Compound: CCOC(=O)c1nn(-c2ccc(Br)cc2)cc1C(=O)c1cccc2ccccc12
- AC50 [2]: 7.08 µM [falling, partial curve]

Compound: Cc1nc(N2CCCCC2)sc1C(=O)c1cccc([N+](=O)[O-])c1
- AC50 [2]: 22.4 µM [rising, single point]

Compound: CCNC(=O)c1ccc(C2SCC(=O)N2CCc2ccccc2)cc1 (stereo not given)
- AC50 [2]: 10 µM [rising, partial curve, poor fit]
- AC50 [1]: 12.6 µM [rising, partial curve, poor fit]

Compound: O=C1[C@H]2CCCC[C@H]2C(=O)N1CCCCN1CCN(c2nsc3ccccc23)CC1
- AC50 [2]: 20 µM [rising, single point]
- AC50 [1]: 12.6 µM [rising, partial curve, poor fit]

Compound: Cc1ccc(-n2c(O)c(C=Nc3ccc(S(=O)(=O)Nc4ncccn4)cc3)c3ccccc3c2=O)cc1C
- AC50 [1]: 10 µM [rising, partial curve, poor fit]
